B1: CLSY2 (protein, UniProt F4K493 1-1261)
chain: MKKRGFYNLKHPFDPCPFEFFCSGTWKPVEYMRIEDGMMTIRLLENGYVLEDIRPFQRLRLRSRKAALSDCICFLRPDIDVCVLYRIHEDDLEPVWVDARIVSIERKPHESECSCKINVRIYIDQGCIGSEKQRINRDSVVIGLNQISILQKFYKEQSTDQFYRWRFSEDCTSLMKTRLSLGKFLPDLSWLTVTSTLKSIVFQIRTVQTKMVYQIVTDEEGSSSTLSSMNITLEDGVSLSKVVKFNPADILDDSQDLEIKQETDYYQEEDEVVELRRSKRRNVRPDIYTGCDYEPDTIDGWVRMMPYQFGKCAVNVESDEDEDDNNEDGDTNDDLYIPLSRLFIKKKKTNSREAKPKSRKGEIVVIDKRRVHGFGRKERKSELSVIPFTPVFEPIPLEQFGLNANSFGGGGSFSRSQYFDETEKYRSKGMKYGKKMTEMEEMMEADLCWKGPNQVKSFQKRTSRSSRSVAPKTEDSDEPRVYKKVTLSAGAYNKLIDTYMNNIESTIAAKDEPTSVVDQWEELKKTNFAFKLHGDMEKNLSEDGEGETSENEMLWREMELCLASSYILDDNEVRVDNEAFEKARSGCEHDYRLEEEIGMCCRLCGHVGSEIKDVSAPFAEHKKWTIETKHIEEDDIKTKLSHKEAQTKDFSMISDSSEMLAAEESDNVWALIPKLKRKLHVHQRRAFEFLWRNVAGSVEPSLMDPTSGNIGGCVISHSPGAGKTFLIIAFLTSYLKLFPGKRPLVLAPKTTLYTWYKEFIKWEIPVPVHLIHGRRTYCTFKQNKTVQFNGVPKPSRDVMHVLDCLEKIQKWHAHPSVLVMGYTSFTTLMREDSKFAHRKYMAKVLRESPGLLVLDEGHNPRSTKSRLRKALMKVGTDLRILLSGTLFQNNFCEYFNTLCLARPKFIHEVLMELDQKFKTNHGVNKAPHLLENRARKLFLDIIAKKIDASVGDERLQGLNMLKNMTNGFIDNYEGSGSGSGDALPGLQIYTLVMNSTDIQHKILTKLQDVIKTYFGYPLEVELQITLAAIHPWLVTSSNCCTKFFNPQELSEIGKLKHDAKKGSKVMFVLNLIFRVVKREKILIFCHNIAPIRMFTELFENIFRWQRGREILTLTGDLELFERGRVIDKFEEPGNPSRVLLASITACAEGISLTAASRVIMLDSEWNPSKTKQAIARAFRPGQQKVVYVYQLLSRGTLEEDKYRRTTWKEWVSCMIFSEEFVADPSLWQAEKIEDDILREIVGEDKVKSFHMIMKNEKASTG
B2: RNA-DIRECTED DNA …ON 4 (RDM4)/… IN MERISTEM … 4 (DMS4) (protein, UniProt Q8GYP3 1-346)
chain: MDGVGESSTQNEVEEKPVIVRVKRKVGQSLLDAFWLEINERPLKRPTLDFSKLSISDSGERGPSVAEDVKPKKVLVRHLETVTDSETTADIIHSFFESDHNEKSCSKGKFEERKIAFKKDNRKEQRLTKSVQKQQIASENARFEQIWRSRKGNKEGIHEKCHFFDVIRVDTEERRDNAQEFTSLEDQKMLASFLPLLRECIPTAAEEIEADIQSSHTEEYVYDYYAVNEEMDISEDSSKNQFPLVIVEDEEEFCDGSDESDYDSEDSNAEDHPKTDYPEEEEEEEEEDDDDDDDDESEEEKSEASDESDDEETSKRHVRSVLGDDEFDDYAEDVYGYSESDEEFES
B3: CHROMATIN REMODELING 31 (CHR31) (protein, UniProt F4I8S3 1-1410)
chain: MECIGKRVKSRSWQRLQAVNKRKKMETVAPVTSPPKKRRQKKPKNYDSDIEDITPTCNDSVPPPQVSNMYSVPNNSVKESFSRIMRDLNVEKKSGPSSSRLTDGSEQNPCLKERSFRVSDLGVEKKCSPEITDLDVGIPVPRFSKLKDVSEQKNTCLMQKSSPEIADLDLVISVPSSSVLKDVSEEIRFLKDKCSPEIRGLVLEKSVPGEIEILSDSESETEARRRASAKKKLFEESSRIVESISDGEDSSSETDEEEEENQDSEDNNTKDNVTVESLSSEDPSSSSSSSSSSSSSSSSSSSDDESYVKEVVGDNRDDDDLRKASSPIKRVSLVERKALVRYKRSGSSLTKPRERDNKIQKLNHREEEKKERQREVVRVVTKQPSNVVYTCAHCGKENTGNPESHSSFIRPHSIRDEIEDVNNFASTNVSKYEDSVSINSGKTTGAPSRPEVENPETGKELNTPEKPSISRPEIFTTEKAIDVQVPEEPSRPEIYSSEKAKEVQAPEMPSRPEVFSSEKAKEIQVPEMPSIPEIQNSEKAKEVQANNRMGLTTPAVAEGLNKSVVTNEHIEDDSDSSISSGDGYESDPTLKDKEVKINNHSDWRILNGNNKEVDLFRLLVNSVWEKGQLGEEDEADELVSSAEDQSQEQAREDHRKYDDAGLLIIRPPPLIEKFGVEEPQSPPVVSEIDSEEDRLWEELAFFTKSNDIGGNELFSNVEKNISANETPAAQCKKGKHDLCIDLEVGLKCMHCGFVEREIRSMDVSEWGEKTTRERRKFDRFEEEEGSSFIGKLGFDAPNNSLNEGCVSSEGTVWDKIPGVKSQMYPHQQEGFEFIWKNLAGTIMLNELKDFENSDETGGCIMSHAPGTGKTRLTIIFLQAYLQCFPDCKPVIIAPASLLLTWAEEFKKWNISIPFHNLSSLDFTGKENSAALGLLMQKNATARSNNEIRMVKIYSWIKSKSILGISYNLYEKLAGVKDEDKKTKMVREVKPDKELDDIREILMGRPGLLVLDEAHTPRNQRSCIWKTLSKVETQKRILLSGTPFQNNFLELCNVLGLARPKYLERLTSTLKKSGMTVTKRGKKNLGNEINNRGIEELKAVMLPFVHVHKGSILQSSLPGLRECVVVLNPPELQRRVLESIEVTHNRKTKNVFETEHKLSLVSVHPSLVSRCKISEKERLSIDEALLAQLKKVRLDPNQSVKTRFLMEFVELCEVIKEKVLVFSQYIDPLKLIMKHLVSRFKWNPGEEVLYMHGKLEQKQRQTLINEFNDPKSKAKVFLASTKACSEGISLVGASRVILLDVVWNPAVERQAISRAYRIGQKRIVYTYHLVAKGTPEGPKYCKQAQKDRISELVFACSSRHDKGKEKIAEAVTEDKVLDTMVEHSKLGDMFDNLIVQPKEADLVEGFSILMP
B4: NRPB11/D11/E11 (protein, UniProt Q38859 1-116)
chain: MNAPERYERFVVPEGTKKVSYDRDTKIINAASFTVEREDHTIGNIVRMQLHRDENVLFAGYQLPHPLKYKIIVRIHTTSQSSPMQAYNQAINDLDKELDYLKNQFEAEVAKFSNQF
B5: NRPB9A/E9A (protein, UniProt Q6NLH0 1-114)
chain: MSTMKFCRECNNILYPKEDKEQKILLYACRNCDHQEVADNSCVYRNEVHHSVSERTQILTDVASDPTLPRTKAVRCSKCQHREAVFFQATARGEEGMTLFFVCCNPNCGHRWRE
B6: NRPB9B/D9B/E9B (protein, UniProt Q8L5V0 1-114)
chain: B5 chain with K23S, V37A, S41N, R55Q, T60S, S77A, R82G, G109S
B7: CLASSY 1 (CLSY1), endogenous (protein, UniProt Q9M297 1-1256)
chain: MKRKHYFEFNHPFNPCPFEVFCWGTWKAVEYLRIENGTMTMRLLENGQVLDDIKPFQRLRIRSRKATLIDCTSFLRPGIDVCVLYQRDEETPEPVWVDARVLSIERKPHESECLCTFHVSVYIDQGCIGLEKHRMNKVPVLVGLNEIAILQKFCKEQSLDRYYRWRYSEDCSSLVKTRLNLGKFLPDLTWLLVTSVLKNIVFQIRTVHEKMVYQIVTDEDCEGSSSSLSAMNITVEDGVVMSKVVLFNPAEDTCQDSDVKEEIEEEVMELRRSKRRSGRPERYGDSEIQPDSKDGWVRMMPYRYNIWNVSSDDDDEEEDCEDDKDTDDDLYLPLSHLLRKKGSKKGFSKDKQREIVLVDKTERKKRKKTEGFSRSCELSVIPFTPVFEPIPLEQFGLNANSLCGGVSGNLMDEIDKYRSKAAKYGKKKKKKIEMEEMESDLGWNGPIGNVVHKRNGPHSRIRSVSRETGVSEEPQIYKKRTLSAGAYNKLIDSYMSRIDSTIAAKDKATNVVEQWQGLKNPASFSIEAEERLSEEEEDDGETSENEILWREMELCLASSYILDDHEVRVDNEAFHKATCDCEHDYELNEEIGMCCRLCGHVGTEIKHVSAPFARHKKWTTETKQINEDDINTTIVNQDGVESHTFTIPVASSDMPSAEESDNVWSLIPQLKRKLHLHQKKAFEFLWKNLAGSVVPAMMDPSSDKIGGCVVSHTPGAGKTFLIIAFLASYLKIFPGKRPLVLAPKTTLYTWYKEFIKWEIPVPVHLLHGRRTYCMSKEKTIQFEGIPKPSQDVMHVLDCLDKIQKWHAQPSVLVMGYTSFLTLMREDSKFAHRKYMAKVLRESPGLLVLDEGHNPRSTKSRLRKALMKVDTDLRILLSGTLFQNNFCEYFNTLCLARPKFVHEVLVELDKKFQTNQAEQKAPHLLENRARKFFLDIIAKKIDTKVGDERLQGLNMLRNMTSGFIDNYEGSGSGSGDVLPGLQIYTLLMNSTDVQHKSLTKLQNIMSTYHGYPLELELLITLAAIHPWLVKTTTCCAKFFNPQELLEIEKLKHDAKKGSKVMFVLNLVFRVVKREKILIFCHNIAPIRLFLELFENVFRWKRGRELLTLTGDLELFERGRVIDKFEEPGGQSRVLLASITACAEGISLTAASRVIMLDSEWNPSKTKQAIARAFRPGQQKVVYVYQLLSRGTLEEDKYRRTTWKEWVSSMIFSEEFVEDPSQWQAEKIEDDVLREIVEEDKVKSFHMIMKNEKASTGG
B8: CHR40 (protein, UniProt Q9LK10 1-1132)
chain: MDMTSCVARRTRSRTESYLNSILNKSKGISGEEEDQSLGCVNSRTEKRRVNMRDACSPSPRKKKRRRRKDDDDDVVFVRTEYPEGKRDDENVGSTSGNLQSKSFDFGDRVCDFDADDRNLGCEEKASNFNPIDDDDDVVFVGTVQRENDHVEDDDNVGSASVISPRVCDFDEDDAKVSGKENPLSPDDDDDVVFLGTIAGENQHVEDVNAGSEVCDILLDDANLRGEEKTYVSDEVVSLSSSSDDEEDPLEELGTDSREEVSGEDRDSGESDMDEDANDSDSSDYVGESSDSSDVESSDSDFVCSEDEEGGTRDDATCEKNPSEKVYHHKKSRTFRRKHNFDVINLLAKSMLESKDVFKEDIFSWDKIAEVDSREDPVVRESSSEKVNEHGKPRERRSFHRVREKNHLNGESFYGGEKLCDGEETINYSTEDSPPLNLRFGCEEPVLIEKTEEEKELDSLWEDMNVALTLEGMHSSTPDKNGDMLCSKGTHDFVLDDEIGLKCVHCAYVAVEIKDISPAMDKYRPSVNDNKKCSDRKGDPLPNRLEFDASDPSSFVAPLDNIEGTVWQYVPGIKDTLYPHQQEGFEFIWKNLAGTTKINELNSVGVKGSGGCIISHKAGTGKTRLTVVFLQSYLKRFPNSHPMVIAPATLMRTWEDEVRKWNVNIPFYNMNSLQLSGYEDAEAVSRLEGNRHHNSIRMVKLVSWWKQKSILGISYPLYEKLAANKNTEGMQVFRRMLVELPGLLVLDEGHTPRNQSSLIWKVLTEVRTEKRIFLSGTLFQNNFKELSNVLCLARPADKDTISSRIHELSKCSQEGEHGRVNEENRIVDLKAMIAHFVHVHEGTILQESLPGLRDCVVVLNPPFQQKKILDRIDTSQNTFEFEHKLSAVSVHPSLYLCCNPTKKEDLVIGPATLGTLKRLRLKYEEGVKTKFLIDFIRISGTVKEKVLVYSQYIDTLKLIMEQLIAECDWTEGEQILLMHGKVEQRDRQHMIDNFNKPDSGSKVLLASTKACSEGISLVGASRVVILDVVWNPSVESQAISRAFRIGQKRAVFIYHLMVKDTSEWNKYCKQSEKHRISELVFSSTNEKDKPINNEVVSKDRILDEMVRHEKLKHIFEKILYHPKKSDMNTSFF

The chains behind the UniProt entries cited, without tags or fusion partners. Where a name states a change or a piece, a line headed by the entry shows the natural chain unless it says otherwise.
UniProt Q8L5V0: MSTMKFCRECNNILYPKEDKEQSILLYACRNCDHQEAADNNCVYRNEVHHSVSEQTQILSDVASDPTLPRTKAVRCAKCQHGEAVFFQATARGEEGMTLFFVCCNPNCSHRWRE
UniProt Q9LQ02: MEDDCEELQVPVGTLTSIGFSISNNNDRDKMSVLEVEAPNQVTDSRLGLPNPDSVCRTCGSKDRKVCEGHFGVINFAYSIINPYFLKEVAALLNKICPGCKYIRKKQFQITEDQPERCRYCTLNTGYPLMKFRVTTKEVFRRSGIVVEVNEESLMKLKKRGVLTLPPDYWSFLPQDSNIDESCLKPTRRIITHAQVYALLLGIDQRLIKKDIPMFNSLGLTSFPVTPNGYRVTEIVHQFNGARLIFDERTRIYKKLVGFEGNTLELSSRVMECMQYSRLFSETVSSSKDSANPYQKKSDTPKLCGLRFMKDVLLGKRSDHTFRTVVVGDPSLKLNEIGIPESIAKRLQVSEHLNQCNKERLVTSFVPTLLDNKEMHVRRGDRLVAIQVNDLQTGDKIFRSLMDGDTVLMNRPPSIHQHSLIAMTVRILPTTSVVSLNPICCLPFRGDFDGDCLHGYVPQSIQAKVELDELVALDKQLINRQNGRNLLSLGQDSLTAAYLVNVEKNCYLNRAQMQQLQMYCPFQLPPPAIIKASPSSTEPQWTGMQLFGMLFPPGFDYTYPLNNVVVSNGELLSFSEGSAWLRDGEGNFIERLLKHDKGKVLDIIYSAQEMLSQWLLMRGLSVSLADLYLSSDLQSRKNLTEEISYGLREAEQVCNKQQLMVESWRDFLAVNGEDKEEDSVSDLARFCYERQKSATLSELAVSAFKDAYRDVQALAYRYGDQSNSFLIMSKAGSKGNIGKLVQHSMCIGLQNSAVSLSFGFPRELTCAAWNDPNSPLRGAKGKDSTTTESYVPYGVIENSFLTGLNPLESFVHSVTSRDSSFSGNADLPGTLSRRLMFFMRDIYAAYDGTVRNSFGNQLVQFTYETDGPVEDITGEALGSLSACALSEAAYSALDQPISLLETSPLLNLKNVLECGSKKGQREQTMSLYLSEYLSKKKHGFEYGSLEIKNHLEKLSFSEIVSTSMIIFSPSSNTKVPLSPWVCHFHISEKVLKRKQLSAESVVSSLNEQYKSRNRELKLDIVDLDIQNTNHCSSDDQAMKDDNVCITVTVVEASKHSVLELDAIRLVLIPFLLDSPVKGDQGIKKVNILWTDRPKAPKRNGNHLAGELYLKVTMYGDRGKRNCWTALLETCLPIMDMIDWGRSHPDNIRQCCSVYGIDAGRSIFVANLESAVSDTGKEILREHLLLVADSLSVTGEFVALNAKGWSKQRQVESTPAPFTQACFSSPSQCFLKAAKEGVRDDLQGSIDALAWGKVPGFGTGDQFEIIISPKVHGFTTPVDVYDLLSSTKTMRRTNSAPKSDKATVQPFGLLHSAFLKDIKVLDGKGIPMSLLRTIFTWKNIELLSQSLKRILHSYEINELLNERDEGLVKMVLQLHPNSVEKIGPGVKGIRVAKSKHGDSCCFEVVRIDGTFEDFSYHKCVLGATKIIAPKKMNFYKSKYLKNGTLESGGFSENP

Positions count from the first letter of the chain named. Numbers in names are those of the source. These are yes or no findings as the source states them, for the method shown. In cells and extracts the contact can be indirect. Here binding means that the protein was enriched with, or labelled near, the bait; the list need not be complete.

Experimental findings from publication PMC3141008 are described below.

The target of this test is NUCLEAR RNA POLYMERASE D1 (NRPD1), carboxy-terminal 3×Flag tagged (Arabidopsis thaliana) (UniProt Q9LQ02). Kind of test: affinity purification with mass spectrometry; ~10 g flower tissue of NRPD1-3×Flag and NRPD1-3×Flag-BLRP T4 plants (Col as negative control); lysis buffer 50 mM Tris pH7.6, 150 mM NaCl, 5 mM MgCl2, 10% glycerol, 0.1% NP-40; Dynabeads conjugated with a Flag antibody, 4°C 2.5 hours; eluted with 3×Flag peptide.
As for B1, the binding result is recorded as “binds”.

Consider B2, for which the binding result is reported as “binds”.

Consider B3, for which the binding result is on record as “binds”.

Turning to B4, the binding entry is “binds”.

B5: the binding result was “binds”.

As for B6, the binding result was “binds”.

As for B7, the binding entry is reported as “binds”.

Take B8: the binding result is given as “binds”.
